Assay results taken from paper PMC6028381.
Results are given in words; binding and its absence hold for the method and conditions named. For some of these results: In cells and extracts the contact can be indirect. Some binding calls cover weakened binding; strength is not graded here. For some of these results: Tags and fused reporters may be left off the sequences shown.

By UniProt entry, the sequences of proteins in these tests, tags left out. Where a name states a change or a piece, a line headed by the entry shows the natural chain unless it says otherwise.
UniProt O60934: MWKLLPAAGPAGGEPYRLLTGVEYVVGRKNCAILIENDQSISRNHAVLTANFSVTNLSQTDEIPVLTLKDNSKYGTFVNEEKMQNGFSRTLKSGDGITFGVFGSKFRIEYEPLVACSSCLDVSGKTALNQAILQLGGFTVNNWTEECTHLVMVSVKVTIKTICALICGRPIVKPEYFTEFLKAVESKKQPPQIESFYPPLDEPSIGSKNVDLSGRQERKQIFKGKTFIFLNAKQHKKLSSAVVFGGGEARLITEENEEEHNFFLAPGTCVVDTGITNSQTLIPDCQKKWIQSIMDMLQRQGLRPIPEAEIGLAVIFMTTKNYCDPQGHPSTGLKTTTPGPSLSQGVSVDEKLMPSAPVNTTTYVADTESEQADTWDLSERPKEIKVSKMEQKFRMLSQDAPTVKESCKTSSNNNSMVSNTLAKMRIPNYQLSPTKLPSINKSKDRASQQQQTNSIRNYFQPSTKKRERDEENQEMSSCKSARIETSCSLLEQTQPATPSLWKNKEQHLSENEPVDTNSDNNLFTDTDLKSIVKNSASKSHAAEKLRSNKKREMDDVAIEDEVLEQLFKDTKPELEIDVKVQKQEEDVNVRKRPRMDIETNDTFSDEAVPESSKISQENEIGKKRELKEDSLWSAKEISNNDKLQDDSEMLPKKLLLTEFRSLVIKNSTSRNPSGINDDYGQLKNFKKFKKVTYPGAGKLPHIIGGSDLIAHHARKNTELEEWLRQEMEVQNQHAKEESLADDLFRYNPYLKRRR
UniProt Q92878: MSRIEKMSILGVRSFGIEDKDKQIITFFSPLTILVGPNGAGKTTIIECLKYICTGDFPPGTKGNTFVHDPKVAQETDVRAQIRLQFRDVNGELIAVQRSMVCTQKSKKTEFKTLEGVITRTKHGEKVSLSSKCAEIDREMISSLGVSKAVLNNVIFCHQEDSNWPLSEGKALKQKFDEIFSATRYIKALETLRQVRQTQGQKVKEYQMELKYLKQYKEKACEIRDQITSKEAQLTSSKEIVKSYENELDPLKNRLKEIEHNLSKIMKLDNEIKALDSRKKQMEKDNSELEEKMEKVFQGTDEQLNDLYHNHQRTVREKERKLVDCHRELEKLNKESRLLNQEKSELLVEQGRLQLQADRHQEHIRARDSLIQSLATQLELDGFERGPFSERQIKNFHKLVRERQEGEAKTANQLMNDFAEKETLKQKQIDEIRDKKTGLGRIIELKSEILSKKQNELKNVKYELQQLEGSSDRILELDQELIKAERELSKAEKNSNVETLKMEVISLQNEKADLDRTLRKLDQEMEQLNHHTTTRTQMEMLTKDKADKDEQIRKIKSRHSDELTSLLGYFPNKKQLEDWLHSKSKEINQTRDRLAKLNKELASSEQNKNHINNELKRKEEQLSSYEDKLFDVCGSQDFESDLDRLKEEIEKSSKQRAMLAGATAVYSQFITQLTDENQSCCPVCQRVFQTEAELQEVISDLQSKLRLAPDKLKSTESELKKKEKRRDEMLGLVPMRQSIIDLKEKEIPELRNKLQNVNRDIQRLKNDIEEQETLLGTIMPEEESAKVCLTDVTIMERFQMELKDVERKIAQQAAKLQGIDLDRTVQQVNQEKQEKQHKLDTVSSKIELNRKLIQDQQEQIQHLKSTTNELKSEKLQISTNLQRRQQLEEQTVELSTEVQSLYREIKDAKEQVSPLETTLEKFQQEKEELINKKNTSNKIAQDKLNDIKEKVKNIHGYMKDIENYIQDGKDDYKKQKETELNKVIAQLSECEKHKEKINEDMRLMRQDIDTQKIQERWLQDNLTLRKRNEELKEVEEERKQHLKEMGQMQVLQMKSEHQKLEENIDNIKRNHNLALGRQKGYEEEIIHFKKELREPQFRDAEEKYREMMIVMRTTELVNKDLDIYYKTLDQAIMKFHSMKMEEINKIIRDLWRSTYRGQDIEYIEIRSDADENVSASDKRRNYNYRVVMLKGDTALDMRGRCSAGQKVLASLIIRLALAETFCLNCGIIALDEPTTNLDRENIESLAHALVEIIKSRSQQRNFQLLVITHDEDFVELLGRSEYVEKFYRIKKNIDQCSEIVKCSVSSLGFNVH
UniProt Q13315: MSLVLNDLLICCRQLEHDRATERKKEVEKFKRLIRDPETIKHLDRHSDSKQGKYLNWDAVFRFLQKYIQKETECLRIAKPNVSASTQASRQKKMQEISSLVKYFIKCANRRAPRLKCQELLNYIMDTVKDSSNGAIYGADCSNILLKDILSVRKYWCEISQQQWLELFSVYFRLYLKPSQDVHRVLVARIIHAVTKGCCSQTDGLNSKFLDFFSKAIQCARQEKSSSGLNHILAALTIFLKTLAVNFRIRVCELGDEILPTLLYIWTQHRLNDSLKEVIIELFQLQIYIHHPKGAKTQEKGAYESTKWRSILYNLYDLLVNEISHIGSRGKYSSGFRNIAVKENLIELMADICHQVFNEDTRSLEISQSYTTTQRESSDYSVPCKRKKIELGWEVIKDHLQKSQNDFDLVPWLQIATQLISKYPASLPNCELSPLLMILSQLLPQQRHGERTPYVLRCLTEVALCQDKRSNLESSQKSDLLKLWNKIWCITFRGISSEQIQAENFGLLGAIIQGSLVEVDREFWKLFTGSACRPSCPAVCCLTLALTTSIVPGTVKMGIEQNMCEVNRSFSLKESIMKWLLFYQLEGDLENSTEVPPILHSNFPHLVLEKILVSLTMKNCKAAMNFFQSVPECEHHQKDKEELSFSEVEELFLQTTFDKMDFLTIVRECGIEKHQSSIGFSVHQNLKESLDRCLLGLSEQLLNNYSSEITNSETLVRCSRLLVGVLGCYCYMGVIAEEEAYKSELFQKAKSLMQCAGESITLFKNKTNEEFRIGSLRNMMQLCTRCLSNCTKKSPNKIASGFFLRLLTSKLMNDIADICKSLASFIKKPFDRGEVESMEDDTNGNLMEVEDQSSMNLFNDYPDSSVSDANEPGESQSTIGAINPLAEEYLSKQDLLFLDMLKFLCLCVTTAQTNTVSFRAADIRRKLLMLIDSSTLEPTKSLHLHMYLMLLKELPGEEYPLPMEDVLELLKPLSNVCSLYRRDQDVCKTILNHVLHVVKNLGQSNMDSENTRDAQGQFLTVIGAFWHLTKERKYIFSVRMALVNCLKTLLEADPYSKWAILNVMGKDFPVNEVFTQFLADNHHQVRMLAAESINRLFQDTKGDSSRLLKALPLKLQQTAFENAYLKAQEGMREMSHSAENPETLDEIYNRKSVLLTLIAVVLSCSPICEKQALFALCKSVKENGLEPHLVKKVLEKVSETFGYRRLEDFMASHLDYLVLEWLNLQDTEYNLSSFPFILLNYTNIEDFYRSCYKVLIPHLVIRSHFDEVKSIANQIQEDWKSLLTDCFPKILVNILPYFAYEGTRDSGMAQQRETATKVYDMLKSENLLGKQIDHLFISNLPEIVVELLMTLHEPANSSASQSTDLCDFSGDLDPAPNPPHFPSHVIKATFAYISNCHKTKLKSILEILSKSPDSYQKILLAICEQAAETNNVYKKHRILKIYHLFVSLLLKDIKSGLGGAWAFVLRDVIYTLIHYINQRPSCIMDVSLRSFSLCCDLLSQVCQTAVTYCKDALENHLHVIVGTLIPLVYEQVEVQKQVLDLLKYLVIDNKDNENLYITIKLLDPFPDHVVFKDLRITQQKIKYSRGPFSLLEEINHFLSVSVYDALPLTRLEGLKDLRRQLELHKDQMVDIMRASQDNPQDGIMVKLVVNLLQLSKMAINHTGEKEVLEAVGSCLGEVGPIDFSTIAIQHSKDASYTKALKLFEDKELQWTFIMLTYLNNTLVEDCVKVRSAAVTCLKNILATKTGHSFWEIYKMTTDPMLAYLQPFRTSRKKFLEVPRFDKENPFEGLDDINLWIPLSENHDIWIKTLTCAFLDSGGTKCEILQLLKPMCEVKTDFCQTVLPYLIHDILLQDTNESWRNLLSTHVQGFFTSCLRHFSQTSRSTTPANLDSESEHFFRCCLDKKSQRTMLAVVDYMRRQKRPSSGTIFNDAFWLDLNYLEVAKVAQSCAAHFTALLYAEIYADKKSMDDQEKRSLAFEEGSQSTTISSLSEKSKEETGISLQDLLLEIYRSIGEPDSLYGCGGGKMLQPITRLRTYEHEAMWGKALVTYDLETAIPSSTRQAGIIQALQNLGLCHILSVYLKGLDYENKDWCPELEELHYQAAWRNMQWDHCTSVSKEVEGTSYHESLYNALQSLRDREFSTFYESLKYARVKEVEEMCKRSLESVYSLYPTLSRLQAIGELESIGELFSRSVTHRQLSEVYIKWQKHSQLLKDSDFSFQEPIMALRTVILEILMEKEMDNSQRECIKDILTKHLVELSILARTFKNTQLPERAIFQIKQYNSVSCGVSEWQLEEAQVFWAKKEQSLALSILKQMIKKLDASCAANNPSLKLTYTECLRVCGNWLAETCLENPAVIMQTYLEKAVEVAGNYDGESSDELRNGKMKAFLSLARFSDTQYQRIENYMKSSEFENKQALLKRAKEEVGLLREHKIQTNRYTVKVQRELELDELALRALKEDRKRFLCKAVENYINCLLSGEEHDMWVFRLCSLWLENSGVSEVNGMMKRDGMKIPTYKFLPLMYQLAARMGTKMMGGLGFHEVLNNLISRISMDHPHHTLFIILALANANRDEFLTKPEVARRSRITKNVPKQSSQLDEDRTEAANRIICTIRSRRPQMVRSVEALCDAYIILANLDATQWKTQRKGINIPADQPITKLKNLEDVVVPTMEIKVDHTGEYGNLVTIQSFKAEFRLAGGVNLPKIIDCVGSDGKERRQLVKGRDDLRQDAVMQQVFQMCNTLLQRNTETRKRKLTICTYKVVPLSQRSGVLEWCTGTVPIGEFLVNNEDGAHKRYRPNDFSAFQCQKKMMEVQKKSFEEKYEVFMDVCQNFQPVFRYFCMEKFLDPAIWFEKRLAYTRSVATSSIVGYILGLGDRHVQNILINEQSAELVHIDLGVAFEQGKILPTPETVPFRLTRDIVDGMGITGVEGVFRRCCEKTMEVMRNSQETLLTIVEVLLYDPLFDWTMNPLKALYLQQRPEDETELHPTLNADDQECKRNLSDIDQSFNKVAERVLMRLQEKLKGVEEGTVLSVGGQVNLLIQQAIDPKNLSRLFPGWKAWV
UniProt P16403: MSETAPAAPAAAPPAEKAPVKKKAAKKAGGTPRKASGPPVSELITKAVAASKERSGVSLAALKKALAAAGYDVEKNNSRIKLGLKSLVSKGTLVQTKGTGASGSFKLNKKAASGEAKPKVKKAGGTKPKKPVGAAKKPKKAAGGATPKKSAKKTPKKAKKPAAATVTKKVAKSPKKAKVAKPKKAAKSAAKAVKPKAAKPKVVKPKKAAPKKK

Assays:
GST-MRE11 = target: T1, GST-MRE11 (UniProt P49959); experiment: pull-down; GST pull-down: equal amounts of HIS-fusion protein incubated with GST-fusion proteins (from E. coli) in TEN buffer (10 mM Tris-HCl pH 8.0, 1 mM EDTA, 100 mM NaCl), 4 h, 4 °C; immunoblot; for H1.2-MRE11 also with benzonase; both purified
T1 sequence: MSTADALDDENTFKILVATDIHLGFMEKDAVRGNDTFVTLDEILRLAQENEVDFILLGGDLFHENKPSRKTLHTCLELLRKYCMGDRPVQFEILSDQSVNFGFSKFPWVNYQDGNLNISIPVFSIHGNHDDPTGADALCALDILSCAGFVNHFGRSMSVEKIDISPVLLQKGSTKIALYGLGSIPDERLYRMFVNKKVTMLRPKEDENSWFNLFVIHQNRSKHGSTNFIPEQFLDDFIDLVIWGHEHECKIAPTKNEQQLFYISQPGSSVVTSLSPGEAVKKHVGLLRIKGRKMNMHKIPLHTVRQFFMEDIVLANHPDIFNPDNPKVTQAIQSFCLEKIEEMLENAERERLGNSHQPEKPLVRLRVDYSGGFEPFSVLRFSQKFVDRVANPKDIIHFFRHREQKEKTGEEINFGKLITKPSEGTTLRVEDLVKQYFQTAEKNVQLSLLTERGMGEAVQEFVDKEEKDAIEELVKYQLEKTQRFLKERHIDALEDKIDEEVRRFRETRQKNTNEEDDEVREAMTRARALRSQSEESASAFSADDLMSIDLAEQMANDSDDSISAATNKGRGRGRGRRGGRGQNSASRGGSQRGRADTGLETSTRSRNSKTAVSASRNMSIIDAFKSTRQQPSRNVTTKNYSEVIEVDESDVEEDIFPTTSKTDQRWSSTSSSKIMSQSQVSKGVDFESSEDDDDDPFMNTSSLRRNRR

GST-NBS1 = GST-NBS1 (UniProt O60934); experiment: as above
GST-RAD50 = GST-RAD50 (UniProt Q92878); experiment: as above
[1] = target: ATM (ataxia telangiectasia mutated), endogenous in HeLa cells (human (endogenous in HeLa)) (UniProt Q13315); experiment: co-IP; HeLa cell lysates in NP-40 buffer, precipitated with the indicated antibodies (anti-ATM and others) and protein G or A Sepharose, 4 °C overnight; immunoblot; with or without benzonase (10 U/mL), H1.2 over-expression, 40 μM etoposide 2 h

| Substance | binding (GST-MRE11) | binding (GST-NBS1) | binding (GST-RAD50) | binding [1] |
| --- | --- | --- | --- | --- |
| HIS-H1.2 (recombinant full-length linker histone H1.2) (from UniProt P16403 1-213) | binds | no binding | no binding | – |
| linker histone H1.2, endogenous in HeLa cells (from UniProt P16403 1-213) | – | – | – | binds |
